From patent publication US10011813B2, “Methane oxidation methods and compositions” (California Institute of Technology, priority 2015, dated 2018)
At least one structure is not confirmed: it was looked up by name or label, or the drawing left a doubt. Some of these results come from one statement about several compounds together.

How the values were obtained:
[1] = cited from earlier work
[2] = test system: methane seep sediment (ANME archaea); test: AOM rate measurement via 13C-methane (newly formed DIC) in methane seep sediment incubations; assay type: cell-based, ANME-2a and ANME-2c; settings: sulfate-free incubations
Source text: General description of methane oxidation measurements via ^13C-methane. Methane oxidation was quantified by determining the production of inorganic carbon (“CO2”). Accurate quantification of the concentration of inorganic carbon formed from methane oxidation is challenging due to 4 main reasons:
A defined amount of added DIC in artificial, buffered seawater was used with a low calcium concentration to prevent carbonate precipitation (see medium composition). As ^13CH4 was the only ^13C-enriched carbon source added, the newly formed ^13C-DIC must be derived from methane. […]
The 1 L pyrex bottle with the sediment in the sulfate-free medium (1 part wet sediment in 3 parts of slurry volume) was vigorously shaken each time and 3.0 mL of slurry immediately removed and injected into the individual serum bottles. […] The exact fractional abundance of ^13C in the methane was quantified via ^1H-NMR spectroscopy for individual incubations.
AOM rate measurements (quantification of newly formed DIC based on ^13CH4). […] The resulting CO2 was analyzed for the isotopic enrichment (^13F(tn)) on a GC-IR-MS GasBench II (Thermo Scientific). The amount of DIC newly formed (Δ[DIC](tn), see FIG. 6B) was calculated from the measured ^13F (fractional abundance of ^13C), neglecting isotope effects on AOM according to Equation (1): Δ[DIC](tn)=[DIC](t0)*(^13F(tn)−^13F(t0))/(^13F(CH4)−^13F(tn)) (EQ. 1)

Compound	E°′ [1] [mV]	rate of stimulated anaerobic oxidation of methane without sulfate [2]
COS(=O)(=O)[O-].C[n+]1c2ccccc2nc2ccccc21 [Phenazine methosulfate]	80	–
O=C1C(=C2Nc3c(cc(S(=O)(=O)O)cc3S(=O)(=O)O)C2=O)Nc2c1cc(S(=O)(=O)O)cc2S(=O)(=O)O [Indigo tetrasulfonate]	−46	–
O=C1c2ccc(S(=O)(=O)O)cc2C(=O)c2cc(S(=O)(=O)O)ccc21 [2,7-AQDS, 9,10-anthraquinone-2,7-disulfonate]	−185	at least 0.1 mmol cm^−3 day^−1
